Measured values reported in PMC10516952.
No constants are given. Whether binding was seen depends on the method and setting. Some results given as binding are weak or reduced against the parent protein; the word gives no strength.

Chains of the proteins cited; added tags and fusions are not shown. Lines headed by an entry give the natural chain unless they say otherwise; changes in a name come on top.
UniProt P49019: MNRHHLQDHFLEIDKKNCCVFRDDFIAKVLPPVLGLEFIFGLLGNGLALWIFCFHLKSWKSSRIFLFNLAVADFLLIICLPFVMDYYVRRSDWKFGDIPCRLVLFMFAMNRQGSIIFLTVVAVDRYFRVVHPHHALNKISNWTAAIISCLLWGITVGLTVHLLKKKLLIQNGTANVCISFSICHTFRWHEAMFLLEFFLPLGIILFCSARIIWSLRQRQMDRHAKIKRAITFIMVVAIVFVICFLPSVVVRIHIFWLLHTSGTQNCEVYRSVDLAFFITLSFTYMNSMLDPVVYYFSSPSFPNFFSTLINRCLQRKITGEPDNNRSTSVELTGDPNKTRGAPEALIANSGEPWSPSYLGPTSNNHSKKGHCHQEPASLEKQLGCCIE
UniProt P63096: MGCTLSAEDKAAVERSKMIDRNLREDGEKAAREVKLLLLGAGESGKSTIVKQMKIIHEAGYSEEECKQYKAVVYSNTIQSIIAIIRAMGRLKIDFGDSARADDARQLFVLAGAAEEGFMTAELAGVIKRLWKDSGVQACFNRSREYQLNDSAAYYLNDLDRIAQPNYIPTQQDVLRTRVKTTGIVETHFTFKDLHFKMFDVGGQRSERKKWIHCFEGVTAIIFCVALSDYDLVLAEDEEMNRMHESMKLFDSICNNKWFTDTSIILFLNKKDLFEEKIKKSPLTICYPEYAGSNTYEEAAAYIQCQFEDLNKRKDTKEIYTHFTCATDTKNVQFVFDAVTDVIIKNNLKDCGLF

Biological target: Human HCA3 (residues 1–387) with N-terminal HA signal peptide, FLAG-tag and bRIL (human) (UniProt P49019)
Assay: cryo-EM structure; receptor, Gi, Gβγ and scFv16 co-expressed in Sf9; complex purified on M2 FLAG resin and Superose 6 in LMNG/GDN/CHS, 20 mM HEPES pH 7.5, 100 mM NaCl, with agonist throughout (HCA2: GSK256073, MK6892, LUF6283 or acifran; HCA3: acifran); single-particle cryo-EM; both purified

binding: binds
Substance: Gαi1 (Gi) with 2 dominant-negative mutations (G203A, A326S) (from UniProt P63096 1-354)
